# The whole screen tested about 53,000 sequences, of which about 3,700 (7%) were called active.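 The calls were made as follows: active = gene knockdowns whose robust z-score for IL-1 alpha signal is at least 2 or at most -2, so actives lie on both sides; inactive = the rest.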 This is one part of the list.
# Experiment: Components of the Cytosolic LPS Sensing Pathway: Gene Identification via Genome-wide siRNA Screen;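 also: robust z of the log signal after scaling to non-targeting control siRNA wells of the plate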
# Conditions: RAW264.7 macrophages, IL-1a HTRF, actives lie on both sides, screened at 100 nM (by protocol), cells primed 5 h with Pam3CSK4 first
# Summary of the method: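 Cells (RAW264.7, 1×10^4 per well) were transfected with siRNA at 100 nM and cultured 48h at 37 degrees C. Pam3CSK4 was added for 5 hours; LipidA transfection followed for 24 hour. IL-1a was then measured by HTRF.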
row,Sequence,z-score
1,GGCAAUUUGCUGUUUCAUATT against St6galnac5,inactive: 0.132
2,GCAUCUUAUCAAAUAUCCATT against Abca1,inactive: -0.0177
3,GGUCUCUGGUACACUUCAUTT against Ramp1,inactive: 0.608
4,CGAAGUGCUUCAAUAGUAATT against Rnf14,inactive: 0.737
5,GCAUGUGGAGAAGAUGAGGTT against Tas2r143,inactive: 0.793
6,GGGAAGGAGAGUAUUCCAATT against Mrpl14,active: 3.44
7,CCGUUUGUCCCAGAUAUGATT against Rap1gap2,inactive: -0.43
8,CCAGCUCAGUUCCAAACAATT against Dnajc12,inactive: -0.0206
9,GCGAGUCGCUCAUAGUGAATT against Obsl1,inactive: -0.306
10,GGCUGUGUAUGCUUUACCATT against Dnajc11,inactive: 0.812
11,AUAAAGAUGUUGCUGUUGCTT against Olfr44,inactive: -0.992
12,GGGACUCUAAAAUCUCAGGTT against Samd10,inactive: -0.863
13,GCUGUUGUGUACGUGAGCCTT against Tfr2,inactive: -1.05
14,GGCACUUAAGUAUUCUUCATT against Wac,inactive: -0.412
15,GGAGCACAGAAAACACAAGTT against Ncan,active: 3.41
16,CGCUGUUUGAAUUUGUAUUTT against Nat10,inactive: 0.825
17,GGUGCCAACCUCAAUUCAUTT against Hnf4a,inactive: 1.9
18,GGUCUACUGGCGUAAUUACTT against Vsig4,inactive: -0.365
19,GCGUGUAAGUAUGAGAACCTT against Ptpdc1,inactive: 0.322
20,GGACAGAGACAAGAAAAUATT against Ptpn11,inactive: -0.931
21,GGACAAAUUGGUAGGAGGATT against Mslnl,inactive: 0.374
22,GGACUGGAUUUCAUUUAGATT against Fgf9,inactive: 0.755
23,AACUAGCAAUAUGAUGGAGTT against Chic1,inactive: -0.55
24,GGUAUUACUGAAAAGCACCTT against Spidr,inactive: 1.22
25,GGGACCUUGUAAUAGCAAATT against Inip,inactive: 1.09
26,GGACAAGGAAACAAAUUCATT against F8,inactive: 0.755
27,CCUUUGGUAAUCUCCAAAATT against Amph,inactive: 0.862
28,CGGACUAUCUCUAUGAAGATT against Tas2r108,inactive: -0.587
29,GGCCCUGGAAACUAAGCUUTT against Aldob,inactive: -1.2
30,CCUUAAAUGGAGCUUCAGATT against Insrr,inactive: 0.228

# Given bar-delimited: part of the list above
row | Sequence | z-score
24 | GGUAUUACUGAAAAGCACCTT against Spidr | inactive: 1.22
25 | GGGACCUUGUAAUAGCAAATT against Inip | inactive: 1.09
26 | GGACAAGGAAACAAAUUCATT against F8 | inactive: 0.755
27 | CCUUUGGUAAUCUCCAAAATT against Amph | inactive: 0.862
28 | CGGACUAUCUCUAUGAAGATT against Tas2r108 | inactive: -0.587
29 | GGCCCUGGAAACUAAGCUUTT against Aldob | inactive: -1.2
30 | CCUUAAAUGGAGCUUCAGATT against Insrr | inactive: 0.228
